Measurements reported in US10576148B2, “Use of VAP-1 inhibitors for treating fibrotic conditions” (BIOTIE THERAPIES CORP., priority 2009, dated 2020).
For at least one compound, name, drawing or mass did not settle the structure.

Tested on: ApoE3 Leiden mice
Assay: cuff-induced neointimal thickening in femoral artery
Type: in vivo, mouse
Conditions: first study, 9 mg/l in drinking water, 2 weeks, vs NaCl 0.9% control
Excerpt: Neointimal and medial thickening is an early and essential stage in the development of atherosclerotic lesions and an essential component of restenosis. It is accompanied by fibrotic changes in the neointima and media of the vascular wall. This study evaluated the role of blocking SSAO in fibrotic disease by evaluating the effect of systemic delivery (by daily ip injection) of a small molecule SSAO inhibitor (mofegiline, BTT-2089) on cuff-induced neointimal thickening (cuff-induced stenosis) in the femoral artery of ApoE3 Leiden mice that received a moderate western type diet.
Methods: 40 male ApoE3*Leiden mice (age 12 weeks) were fed a mildly hypercholesterolemic diet for 3 weeks prior to surgical cuff placement. Treatment was daily ip injections with 1) vehicle; 2) dexamethasone in drinking water at 9 mg/I; 3) daily ip injections of BTT-2089 at 10 mg/kg; 4) BTT-2089 at 30 mg/kg, all started one day prior to surgery and continued during the experimental period. At day 0 surgery was performed, i.e. a non-constricting cuff (2-3 mm in length) was placed around both femoral arteries of the mice. 10 mice of each group were sacrificed after 2 weeks for histomorphometric analysis to quantify the inhibition of accelerated atherosclerotic lesions and neointima formation. […]

Q: For `C[C@@H]1C[C@H]2[C@@H]3CCC4=CC(=O)C=C[C@]4(C)[C@@]3(F)[C@@H](O)C[C@]2(C)[C@@]1(O)C(=O)CO` [dexamethasone, reference compound], which media formation is on record?
A: Its media formation is “significant reduction”.

Q: And the neointima formation?
A: Its neointima formation is “significant reduction”.
